Consider one substance from PMC9668737.

Sequences of proteins named here, by UniProt entry; tags and fusion partners are left off. A change or cut given only in a name is not applied to a line headed by its entry.
UniProt F8RG07: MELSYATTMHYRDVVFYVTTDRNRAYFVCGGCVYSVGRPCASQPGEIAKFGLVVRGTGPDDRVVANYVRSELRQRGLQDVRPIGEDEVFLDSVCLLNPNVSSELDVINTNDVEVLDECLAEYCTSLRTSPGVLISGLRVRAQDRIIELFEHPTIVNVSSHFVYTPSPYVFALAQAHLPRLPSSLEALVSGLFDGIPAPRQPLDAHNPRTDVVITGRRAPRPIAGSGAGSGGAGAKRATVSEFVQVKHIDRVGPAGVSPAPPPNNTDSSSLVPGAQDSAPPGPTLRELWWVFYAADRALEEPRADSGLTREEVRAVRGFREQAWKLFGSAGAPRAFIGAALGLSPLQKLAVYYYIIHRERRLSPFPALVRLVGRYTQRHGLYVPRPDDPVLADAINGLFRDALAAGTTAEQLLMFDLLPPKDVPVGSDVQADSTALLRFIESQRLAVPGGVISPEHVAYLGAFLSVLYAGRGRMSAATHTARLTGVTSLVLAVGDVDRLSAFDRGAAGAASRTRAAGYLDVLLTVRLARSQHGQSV
UniProt Q9Y5P4: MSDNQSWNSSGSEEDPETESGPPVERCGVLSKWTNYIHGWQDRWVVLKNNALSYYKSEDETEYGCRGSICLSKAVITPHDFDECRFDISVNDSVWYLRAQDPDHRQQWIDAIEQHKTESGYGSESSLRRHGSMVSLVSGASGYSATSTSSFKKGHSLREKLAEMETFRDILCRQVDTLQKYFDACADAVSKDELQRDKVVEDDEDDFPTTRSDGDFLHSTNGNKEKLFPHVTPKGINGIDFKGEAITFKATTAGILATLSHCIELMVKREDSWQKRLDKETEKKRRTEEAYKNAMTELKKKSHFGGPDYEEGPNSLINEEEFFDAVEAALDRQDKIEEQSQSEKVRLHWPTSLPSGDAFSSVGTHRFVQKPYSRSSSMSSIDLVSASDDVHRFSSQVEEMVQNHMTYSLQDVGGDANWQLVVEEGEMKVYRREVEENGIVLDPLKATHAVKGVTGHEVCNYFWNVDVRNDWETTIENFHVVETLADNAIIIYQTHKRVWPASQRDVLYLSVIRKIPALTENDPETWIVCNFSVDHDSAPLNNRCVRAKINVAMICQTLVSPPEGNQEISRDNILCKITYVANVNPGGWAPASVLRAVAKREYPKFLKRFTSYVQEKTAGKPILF

The assay addresses pUL21-GFP (WT) (herpes simplex virus 1 (HSV-1)) (UniProt F8RG07). Description: co-IP; HEK293T transfected with pUL21-GFP, point mutants or GFP alone, infected at 24 h with ΔpUL21 HSV-1 (MOI = 5), lysed at 16 hpi; GFP-Trap beads; lysis buffer 10 mM Tris pH 7.5, 150 mM NaCl, 0.5 mM EDTA, 0.5% NP-40; immunoblot.

These are yes or no findings as the source states them, for the method shown. Binding seen in cells or lysates may run through a third protein. Binding calls can cover weak binding; strength is not graded here.

As to “CERT (endogenous, HEK293T) (from UniProt Q9Y5P4)”, the binding entry was “binds”.
